Where two headings read alike, the source gives them in different places. No constants are given. Whether binding was seen depends on the method and setting. Binding seen in cells or lysates may run through a third protein. Some results given as binding are weak or reduced against the parent protein; the word gives no strength.
What was measured:
Test in all cases: co-IP
[1] = biological target: T1, CIZ1 (mouse (endogenous in female ESCs)) (UniProt Q8VEH2)
T1 sequence: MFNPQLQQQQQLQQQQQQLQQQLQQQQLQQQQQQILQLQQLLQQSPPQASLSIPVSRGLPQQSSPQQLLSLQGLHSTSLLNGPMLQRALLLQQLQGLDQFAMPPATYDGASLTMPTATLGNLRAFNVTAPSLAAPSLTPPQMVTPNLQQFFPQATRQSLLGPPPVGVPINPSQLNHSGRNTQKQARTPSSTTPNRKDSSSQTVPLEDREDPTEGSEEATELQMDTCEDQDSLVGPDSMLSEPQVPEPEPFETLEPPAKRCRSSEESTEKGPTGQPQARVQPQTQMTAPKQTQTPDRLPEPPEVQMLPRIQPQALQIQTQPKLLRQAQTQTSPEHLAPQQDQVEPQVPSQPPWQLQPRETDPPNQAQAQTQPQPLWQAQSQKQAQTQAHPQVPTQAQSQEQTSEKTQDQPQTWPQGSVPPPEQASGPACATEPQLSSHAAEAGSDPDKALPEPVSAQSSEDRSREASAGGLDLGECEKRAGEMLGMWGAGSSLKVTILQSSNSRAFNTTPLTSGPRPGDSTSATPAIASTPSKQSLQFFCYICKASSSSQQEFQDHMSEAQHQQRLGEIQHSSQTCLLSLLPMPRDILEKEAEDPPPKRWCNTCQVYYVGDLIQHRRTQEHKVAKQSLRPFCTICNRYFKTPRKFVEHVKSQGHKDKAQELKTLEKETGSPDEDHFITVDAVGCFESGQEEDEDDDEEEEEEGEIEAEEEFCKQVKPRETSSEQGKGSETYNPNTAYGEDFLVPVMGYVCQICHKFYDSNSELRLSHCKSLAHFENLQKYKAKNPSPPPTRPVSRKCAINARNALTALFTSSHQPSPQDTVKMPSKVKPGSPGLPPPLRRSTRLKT

Sequences of proteins named here, by UniProt entry; tags and fusion partners are left off.
UniProt P28659: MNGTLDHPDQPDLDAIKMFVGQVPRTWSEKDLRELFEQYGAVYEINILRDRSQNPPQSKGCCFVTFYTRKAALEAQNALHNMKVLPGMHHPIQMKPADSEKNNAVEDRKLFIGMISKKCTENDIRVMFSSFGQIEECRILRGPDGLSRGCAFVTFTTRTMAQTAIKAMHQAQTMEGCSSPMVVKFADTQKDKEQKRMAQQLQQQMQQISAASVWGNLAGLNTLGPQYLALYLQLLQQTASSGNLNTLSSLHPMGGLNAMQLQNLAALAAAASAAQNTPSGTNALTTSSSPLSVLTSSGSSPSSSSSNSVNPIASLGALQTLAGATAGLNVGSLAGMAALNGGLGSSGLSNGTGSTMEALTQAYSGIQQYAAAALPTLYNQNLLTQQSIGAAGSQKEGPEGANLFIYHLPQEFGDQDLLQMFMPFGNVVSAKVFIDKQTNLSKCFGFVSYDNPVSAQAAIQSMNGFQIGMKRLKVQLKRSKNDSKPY
UniProt Q921F2: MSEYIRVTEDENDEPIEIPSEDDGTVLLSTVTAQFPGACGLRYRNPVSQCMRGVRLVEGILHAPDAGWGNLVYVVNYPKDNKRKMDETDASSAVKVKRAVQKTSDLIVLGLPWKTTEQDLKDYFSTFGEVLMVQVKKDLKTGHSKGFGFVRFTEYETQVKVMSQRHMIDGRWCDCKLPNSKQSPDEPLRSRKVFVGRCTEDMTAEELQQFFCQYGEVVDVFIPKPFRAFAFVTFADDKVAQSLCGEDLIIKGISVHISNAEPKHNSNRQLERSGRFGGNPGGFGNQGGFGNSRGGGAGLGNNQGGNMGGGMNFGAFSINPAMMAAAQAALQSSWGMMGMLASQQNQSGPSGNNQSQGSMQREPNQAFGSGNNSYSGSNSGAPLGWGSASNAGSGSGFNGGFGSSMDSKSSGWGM

[2] = biological target: CUG-Binding Protein 1 (CELF1) (mouse (endogenous in female ESCs)) (UniProt P28659)
[3] = biological target: T1, CIZ1 (mouse (endogenous in female ESCs)); remark: listed apart in the source
[4] = biological target: TAR-DNA Binding Protein (TDP-43) (mouse (endogenous in female ESCs)) (UniProt Q921F2)

Measured: binding

B1: MATRIN-3 (MATR3) (protein, UniProt Q8K310 1-846)
chain: MSKSFQQSSLGRDSQGHGRDLSAAGIGLLAAATQSLSMPASLGRMNQGTARLASLMNLGMSSSLNQQGAHSALSSASTSSHNLQSIFNIGSRGPLPLSSQHRGDTDQASNILASFGLSARDLDELSRYPEDKITPENLPQILLQLKRRRTEEGPTLSYGRDGRSATREPPYRVPRDDWEEKRHFRRDSFDDRGPSLNPVLDYDHGSRSQESGYYDRMDYEDDRLRDGERCRDDSFFGETSHNYHKFDSEYERMGRGPGPLQERSLFEKKRGAPPSSNIEDFHGLLPKGYPHLCSICDLPVHSNKEWSQHINGASHSRRCQLLLEIYPEWNPDNDTGHTMGDPFMLQQSTNPAPGILGPPPPSFHLGGPAVGPRGNLGAGNGNLQGPRHMQKGRVETSRVVHIMDFQRGKNLRYQLLQLVEPFGVISNHLILNKINEAFIEMATTEDAQAAVDYYTTTPALVFGKPVRVHLSQKYKRIKKPEGKPDQKFDQKQELGRVIHLSNLPHSGYSDSAVLKLAEPYGKIKNYILMRMKSQAFIEMETREDAMAMVDHCLKKALWFQGRCVKVDLSEKYKKLVLRIPNRGIDLLKKDKSRKRSYSPDGKESPSDKKSKTDAQKTESPAEGKEQEEKSGEDGEKDTKDDQTEQEPSMLLESEDELLVDEEEAAALLESGSSVGDETDLANLGDVSSDGKKEPSDKAVKKDPSASATSKKKLKKVDKIEELDQENEAALENGIKNEENTEPGAESAENADDPNKDTSENADGQNDENKEDYTIPDEYRIGPYQPNVPVGIDYVIPKTGFYCKLCSLFYTNEEVAKNTHCSSLPHYQKLKKFLNKLAEERRQKKET
binds: all assays above

Source: doi:10.1101/2020.03.09.979369
